No constants are given. Whether binding was seen depends on the method and setting. Some results given as binding are weak or reduced against the parent protein; the word gives no strength.
Key:
[1] = target: T1, mannose receptor CD206 on J774A.1 macrophage cells (mouse (endogenous in J774A.1)) (UniProt Q61830); assay: flow cytometry on cells; adherent cells incubated with 1 mL of IF-B12-Cy5 (200 nM) in HBSS for 1 h at 37 °C (BN16 also at 4 °C; J774A.1 also with 2 mg/mL mannan), washed three times; excitation 640 nm, detection 660 ± 20 nm; only the binder purified
T1 sequence: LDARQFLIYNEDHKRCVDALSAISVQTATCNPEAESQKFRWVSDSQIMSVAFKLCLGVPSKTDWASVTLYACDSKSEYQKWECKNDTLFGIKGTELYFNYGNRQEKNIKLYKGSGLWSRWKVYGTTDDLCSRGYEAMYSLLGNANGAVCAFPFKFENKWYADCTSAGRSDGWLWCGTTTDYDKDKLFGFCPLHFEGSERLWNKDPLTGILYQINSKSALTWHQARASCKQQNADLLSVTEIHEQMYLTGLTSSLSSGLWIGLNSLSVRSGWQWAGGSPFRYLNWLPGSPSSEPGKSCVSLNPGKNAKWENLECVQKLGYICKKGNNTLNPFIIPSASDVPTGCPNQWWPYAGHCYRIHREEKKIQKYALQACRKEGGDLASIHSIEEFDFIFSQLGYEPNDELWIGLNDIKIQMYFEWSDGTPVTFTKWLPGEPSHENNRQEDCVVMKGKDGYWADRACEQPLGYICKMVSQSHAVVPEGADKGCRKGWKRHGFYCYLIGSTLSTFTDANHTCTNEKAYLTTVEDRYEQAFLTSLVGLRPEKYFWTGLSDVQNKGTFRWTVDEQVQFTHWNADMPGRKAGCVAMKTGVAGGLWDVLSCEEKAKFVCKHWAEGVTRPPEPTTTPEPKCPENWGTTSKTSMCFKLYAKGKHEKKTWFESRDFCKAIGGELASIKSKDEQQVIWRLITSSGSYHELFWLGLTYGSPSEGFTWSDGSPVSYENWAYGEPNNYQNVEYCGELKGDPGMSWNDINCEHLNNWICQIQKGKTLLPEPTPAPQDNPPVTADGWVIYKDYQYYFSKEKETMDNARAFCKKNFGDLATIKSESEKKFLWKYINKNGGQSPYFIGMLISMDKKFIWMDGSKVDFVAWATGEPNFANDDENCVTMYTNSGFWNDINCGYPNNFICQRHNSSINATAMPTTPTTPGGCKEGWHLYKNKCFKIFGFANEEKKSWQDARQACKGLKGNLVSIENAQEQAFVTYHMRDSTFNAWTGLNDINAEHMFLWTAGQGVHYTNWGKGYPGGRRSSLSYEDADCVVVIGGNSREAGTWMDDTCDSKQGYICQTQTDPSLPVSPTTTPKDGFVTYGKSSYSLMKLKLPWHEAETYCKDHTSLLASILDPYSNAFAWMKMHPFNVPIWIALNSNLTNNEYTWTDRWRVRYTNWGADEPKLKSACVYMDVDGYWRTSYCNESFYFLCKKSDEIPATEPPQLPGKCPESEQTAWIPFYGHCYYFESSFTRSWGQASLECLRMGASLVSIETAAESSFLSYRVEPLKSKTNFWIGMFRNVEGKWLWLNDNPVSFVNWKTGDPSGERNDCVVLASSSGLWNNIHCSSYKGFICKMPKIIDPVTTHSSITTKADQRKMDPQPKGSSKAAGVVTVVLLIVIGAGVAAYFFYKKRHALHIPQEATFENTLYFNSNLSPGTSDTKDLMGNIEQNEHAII

The chains behind the UniProt entries cited, without tags or fusion partners. Residues count along the entry.
UniProt O70244, residues 33-3623: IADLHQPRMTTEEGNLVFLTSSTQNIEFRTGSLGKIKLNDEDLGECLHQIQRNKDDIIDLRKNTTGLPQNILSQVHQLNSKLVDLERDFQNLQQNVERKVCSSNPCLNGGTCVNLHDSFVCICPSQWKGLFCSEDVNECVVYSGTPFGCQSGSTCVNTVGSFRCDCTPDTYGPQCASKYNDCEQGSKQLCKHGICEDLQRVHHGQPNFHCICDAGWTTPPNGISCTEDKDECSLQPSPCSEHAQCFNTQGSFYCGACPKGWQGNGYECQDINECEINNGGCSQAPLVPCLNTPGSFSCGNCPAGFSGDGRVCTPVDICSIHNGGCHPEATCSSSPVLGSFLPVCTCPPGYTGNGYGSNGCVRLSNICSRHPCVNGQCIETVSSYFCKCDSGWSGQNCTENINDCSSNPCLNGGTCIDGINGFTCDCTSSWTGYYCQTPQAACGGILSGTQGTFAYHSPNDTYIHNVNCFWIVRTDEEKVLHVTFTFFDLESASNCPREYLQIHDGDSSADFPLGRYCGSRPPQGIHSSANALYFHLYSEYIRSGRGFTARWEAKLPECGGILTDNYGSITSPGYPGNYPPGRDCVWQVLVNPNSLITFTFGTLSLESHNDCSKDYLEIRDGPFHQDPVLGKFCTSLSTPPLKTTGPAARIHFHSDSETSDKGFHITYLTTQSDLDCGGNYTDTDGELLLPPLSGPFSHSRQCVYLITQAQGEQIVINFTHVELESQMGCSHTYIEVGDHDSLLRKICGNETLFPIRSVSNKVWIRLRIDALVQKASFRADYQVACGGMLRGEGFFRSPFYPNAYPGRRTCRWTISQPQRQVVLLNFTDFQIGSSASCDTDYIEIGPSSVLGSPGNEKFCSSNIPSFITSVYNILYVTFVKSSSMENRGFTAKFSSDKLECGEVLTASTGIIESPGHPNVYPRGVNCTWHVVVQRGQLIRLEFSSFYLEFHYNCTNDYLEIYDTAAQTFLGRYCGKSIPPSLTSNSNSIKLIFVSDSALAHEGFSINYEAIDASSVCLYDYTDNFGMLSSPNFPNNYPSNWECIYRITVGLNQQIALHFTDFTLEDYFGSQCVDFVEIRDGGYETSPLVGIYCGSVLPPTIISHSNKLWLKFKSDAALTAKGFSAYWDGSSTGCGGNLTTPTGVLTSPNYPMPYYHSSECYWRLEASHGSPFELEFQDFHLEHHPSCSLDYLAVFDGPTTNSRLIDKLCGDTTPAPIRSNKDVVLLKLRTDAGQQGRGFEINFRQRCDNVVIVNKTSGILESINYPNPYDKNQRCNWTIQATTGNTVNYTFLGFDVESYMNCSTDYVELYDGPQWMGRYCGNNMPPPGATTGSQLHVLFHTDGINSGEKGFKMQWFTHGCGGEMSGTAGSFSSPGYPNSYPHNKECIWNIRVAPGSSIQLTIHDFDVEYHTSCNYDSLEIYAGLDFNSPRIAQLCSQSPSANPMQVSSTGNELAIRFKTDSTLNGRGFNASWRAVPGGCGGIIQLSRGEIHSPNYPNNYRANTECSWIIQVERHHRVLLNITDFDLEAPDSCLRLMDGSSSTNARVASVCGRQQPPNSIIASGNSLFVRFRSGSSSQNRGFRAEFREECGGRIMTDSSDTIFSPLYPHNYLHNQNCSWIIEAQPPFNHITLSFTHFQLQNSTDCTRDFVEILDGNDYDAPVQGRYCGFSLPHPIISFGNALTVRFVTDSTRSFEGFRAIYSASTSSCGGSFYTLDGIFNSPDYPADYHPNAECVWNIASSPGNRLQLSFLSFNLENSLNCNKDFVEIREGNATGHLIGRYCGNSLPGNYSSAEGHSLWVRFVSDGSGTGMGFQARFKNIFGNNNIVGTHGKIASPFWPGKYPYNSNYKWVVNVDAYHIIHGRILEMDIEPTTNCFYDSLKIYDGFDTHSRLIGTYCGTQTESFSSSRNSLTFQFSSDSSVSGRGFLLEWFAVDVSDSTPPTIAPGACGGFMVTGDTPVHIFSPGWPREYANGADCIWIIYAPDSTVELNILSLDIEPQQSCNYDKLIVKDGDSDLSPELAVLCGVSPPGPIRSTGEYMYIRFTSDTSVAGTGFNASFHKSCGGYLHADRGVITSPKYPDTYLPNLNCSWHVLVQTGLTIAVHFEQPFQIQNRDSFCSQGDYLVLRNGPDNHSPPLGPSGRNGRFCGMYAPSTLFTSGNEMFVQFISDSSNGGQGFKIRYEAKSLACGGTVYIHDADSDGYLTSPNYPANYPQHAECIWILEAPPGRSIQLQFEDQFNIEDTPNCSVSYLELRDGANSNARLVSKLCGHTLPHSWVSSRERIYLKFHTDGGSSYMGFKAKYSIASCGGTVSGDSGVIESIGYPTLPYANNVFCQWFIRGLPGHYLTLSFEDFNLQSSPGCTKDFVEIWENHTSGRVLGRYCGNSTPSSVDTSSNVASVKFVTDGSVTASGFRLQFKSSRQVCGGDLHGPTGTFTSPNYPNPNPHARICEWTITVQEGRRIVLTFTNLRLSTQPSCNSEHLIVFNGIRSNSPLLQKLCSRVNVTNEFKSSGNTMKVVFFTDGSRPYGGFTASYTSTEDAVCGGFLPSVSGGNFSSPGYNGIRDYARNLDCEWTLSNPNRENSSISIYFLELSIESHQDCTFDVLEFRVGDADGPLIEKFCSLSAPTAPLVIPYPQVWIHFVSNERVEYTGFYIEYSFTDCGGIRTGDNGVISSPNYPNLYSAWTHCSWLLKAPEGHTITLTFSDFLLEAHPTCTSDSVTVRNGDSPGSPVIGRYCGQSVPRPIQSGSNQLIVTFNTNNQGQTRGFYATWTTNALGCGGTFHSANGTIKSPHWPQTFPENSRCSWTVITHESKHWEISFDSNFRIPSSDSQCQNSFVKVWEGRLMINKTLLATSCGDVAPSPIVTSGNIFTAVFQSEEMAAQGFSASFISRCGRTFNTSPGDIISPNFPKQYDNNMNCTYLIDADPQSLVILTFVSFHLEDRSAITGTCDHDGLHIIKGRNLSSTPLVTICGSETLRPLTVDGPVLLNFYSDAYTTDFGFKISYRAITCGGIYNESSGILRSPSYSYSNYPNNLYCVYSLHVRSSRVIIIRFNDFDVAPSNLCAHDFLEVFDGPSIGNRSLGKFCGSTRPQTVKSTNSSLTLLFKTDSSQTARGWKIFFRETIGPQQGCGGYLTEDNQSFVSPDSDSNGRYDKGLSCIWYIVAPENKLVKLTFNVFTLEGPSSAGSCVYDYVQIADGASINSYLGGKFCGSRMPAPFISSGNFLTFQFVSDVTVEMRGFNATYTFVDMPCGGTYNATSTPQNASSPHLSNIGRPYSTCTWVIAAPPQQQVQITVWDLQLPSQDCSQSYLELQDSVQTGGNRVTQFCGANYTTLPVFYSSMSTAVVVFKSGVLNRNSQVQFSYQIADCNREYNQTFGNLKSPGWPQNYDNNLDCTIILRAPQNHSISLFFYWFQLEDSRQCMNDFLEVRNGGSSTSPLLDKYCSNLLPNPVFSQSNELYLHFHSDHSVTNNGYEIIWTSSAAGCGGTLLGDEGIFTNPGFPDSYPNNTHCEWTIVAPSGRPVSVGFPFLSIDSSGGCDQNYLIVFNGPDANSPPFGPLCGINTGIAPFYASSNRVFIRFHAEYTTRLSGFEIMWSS
UniProt P27352, residues 19-417: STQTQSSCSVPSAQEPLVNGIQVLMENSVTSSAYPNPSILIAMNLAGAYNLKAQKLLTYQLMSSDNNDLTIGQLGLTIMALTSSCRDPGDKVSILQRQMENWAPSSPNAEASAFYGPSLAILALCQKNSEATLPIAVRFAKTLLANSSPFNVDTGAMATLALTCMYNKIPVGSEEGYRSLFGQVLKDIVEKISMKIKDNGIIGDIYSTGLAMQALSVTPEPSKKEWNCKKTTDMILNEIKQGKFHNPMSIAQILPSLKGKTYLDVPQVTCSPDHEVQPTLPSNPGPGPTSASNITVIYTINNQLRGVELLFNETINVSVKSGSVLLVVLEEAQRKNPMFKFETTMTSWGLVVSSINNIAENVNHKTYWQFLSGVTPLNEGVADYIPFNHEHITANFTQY

[2] = target: cubilin (CUBN) on BN16 (Brown Norway rat yolk) cells (rat (endogenous in BN16)) (UniProt O70244); assay: as above

binding [1]: binds
binding [2]: binds
Substance: human recombinant gastric intrinsic factor produced in Arabidopsis thaliana, bound to B12-Cy5 (IF-B12-Cy5) (from UniProt P27352 19-417)
